Data taken from paper doi:10.1101/2022.08.05.502996.
Results are given in words; binding and its absence hold for the method and conditions named. In cells and extracts the contact can be indirect. These calls come from enrichment with a bait or labelling near it, and not all partners need be listed. For part of these data: No binding means not detected with the bait. Sequences can lack the tags named with a protein. One block for each molecule: values may come before it.

By UniProt entry, the sequences of proteins in these tests, tags left out. Where a name states a change or a piece, a line headed by the entry shows the natural chain unless it says otherwise.
UniProt Q9M2D8: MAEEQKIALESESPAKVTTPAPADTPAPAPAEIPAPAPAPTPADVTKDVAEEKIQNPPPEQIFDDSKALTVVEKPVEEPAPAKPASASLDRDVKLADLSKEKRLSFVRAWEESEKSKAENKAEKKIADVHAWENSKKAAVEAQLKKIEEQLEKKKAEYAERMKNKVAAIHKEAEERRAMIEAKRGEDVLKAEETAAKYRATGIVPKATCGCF
UniProt O80837: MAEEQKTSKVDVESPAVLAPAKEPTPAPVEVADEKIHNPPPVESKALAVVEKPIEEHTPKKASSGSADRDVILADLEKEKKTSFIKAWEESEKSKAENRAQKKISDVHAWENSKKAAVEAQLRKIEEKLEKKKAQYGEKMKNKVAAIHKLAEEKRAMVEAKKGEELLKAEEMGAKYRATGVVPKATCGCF
UniProt Q9FX32: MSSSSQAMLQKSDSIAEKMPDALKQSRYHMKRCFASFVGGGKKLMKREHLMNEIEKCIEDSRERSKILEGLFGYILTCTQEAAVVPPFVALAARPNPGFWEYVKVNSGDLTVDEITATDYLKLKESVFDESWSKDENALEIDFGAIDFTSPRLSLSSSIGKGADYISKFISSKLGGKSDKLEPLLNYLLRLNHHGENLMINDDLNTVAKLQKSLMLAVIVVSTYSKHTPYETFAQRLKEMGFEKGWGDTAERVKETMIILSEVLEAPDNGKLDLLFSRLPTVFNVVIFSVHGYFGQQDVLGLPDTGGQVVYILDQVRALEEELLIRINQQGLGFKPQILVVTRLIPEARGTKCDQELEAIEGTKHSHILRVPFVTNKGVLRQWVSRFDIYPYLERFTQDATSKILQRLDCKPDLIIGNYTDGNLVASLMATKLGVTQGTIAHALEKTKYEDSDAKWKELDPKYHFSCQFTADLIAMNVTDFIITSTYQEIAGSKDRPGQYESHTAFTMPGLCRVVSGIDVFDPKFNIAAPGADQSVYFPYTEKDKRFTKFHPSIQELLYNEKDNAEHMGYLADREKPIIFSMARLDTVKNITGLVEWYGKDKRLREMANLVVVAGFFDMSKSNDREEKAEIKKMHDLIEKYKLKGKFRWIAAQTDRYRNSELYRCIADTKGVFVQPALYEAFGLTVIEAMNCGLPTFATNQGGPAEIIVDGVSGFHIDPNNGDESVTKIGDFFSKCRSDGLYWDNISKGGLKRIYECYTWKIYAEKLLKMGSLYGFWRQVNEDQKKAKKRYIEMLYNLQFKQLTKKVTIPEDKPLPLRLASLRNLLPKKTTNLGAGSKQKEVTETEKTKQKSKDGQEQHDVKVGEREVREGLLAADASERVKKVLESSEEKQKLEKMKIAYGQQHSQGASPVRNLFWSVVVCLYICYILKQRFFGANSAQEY
UniProt Q9SHJ3: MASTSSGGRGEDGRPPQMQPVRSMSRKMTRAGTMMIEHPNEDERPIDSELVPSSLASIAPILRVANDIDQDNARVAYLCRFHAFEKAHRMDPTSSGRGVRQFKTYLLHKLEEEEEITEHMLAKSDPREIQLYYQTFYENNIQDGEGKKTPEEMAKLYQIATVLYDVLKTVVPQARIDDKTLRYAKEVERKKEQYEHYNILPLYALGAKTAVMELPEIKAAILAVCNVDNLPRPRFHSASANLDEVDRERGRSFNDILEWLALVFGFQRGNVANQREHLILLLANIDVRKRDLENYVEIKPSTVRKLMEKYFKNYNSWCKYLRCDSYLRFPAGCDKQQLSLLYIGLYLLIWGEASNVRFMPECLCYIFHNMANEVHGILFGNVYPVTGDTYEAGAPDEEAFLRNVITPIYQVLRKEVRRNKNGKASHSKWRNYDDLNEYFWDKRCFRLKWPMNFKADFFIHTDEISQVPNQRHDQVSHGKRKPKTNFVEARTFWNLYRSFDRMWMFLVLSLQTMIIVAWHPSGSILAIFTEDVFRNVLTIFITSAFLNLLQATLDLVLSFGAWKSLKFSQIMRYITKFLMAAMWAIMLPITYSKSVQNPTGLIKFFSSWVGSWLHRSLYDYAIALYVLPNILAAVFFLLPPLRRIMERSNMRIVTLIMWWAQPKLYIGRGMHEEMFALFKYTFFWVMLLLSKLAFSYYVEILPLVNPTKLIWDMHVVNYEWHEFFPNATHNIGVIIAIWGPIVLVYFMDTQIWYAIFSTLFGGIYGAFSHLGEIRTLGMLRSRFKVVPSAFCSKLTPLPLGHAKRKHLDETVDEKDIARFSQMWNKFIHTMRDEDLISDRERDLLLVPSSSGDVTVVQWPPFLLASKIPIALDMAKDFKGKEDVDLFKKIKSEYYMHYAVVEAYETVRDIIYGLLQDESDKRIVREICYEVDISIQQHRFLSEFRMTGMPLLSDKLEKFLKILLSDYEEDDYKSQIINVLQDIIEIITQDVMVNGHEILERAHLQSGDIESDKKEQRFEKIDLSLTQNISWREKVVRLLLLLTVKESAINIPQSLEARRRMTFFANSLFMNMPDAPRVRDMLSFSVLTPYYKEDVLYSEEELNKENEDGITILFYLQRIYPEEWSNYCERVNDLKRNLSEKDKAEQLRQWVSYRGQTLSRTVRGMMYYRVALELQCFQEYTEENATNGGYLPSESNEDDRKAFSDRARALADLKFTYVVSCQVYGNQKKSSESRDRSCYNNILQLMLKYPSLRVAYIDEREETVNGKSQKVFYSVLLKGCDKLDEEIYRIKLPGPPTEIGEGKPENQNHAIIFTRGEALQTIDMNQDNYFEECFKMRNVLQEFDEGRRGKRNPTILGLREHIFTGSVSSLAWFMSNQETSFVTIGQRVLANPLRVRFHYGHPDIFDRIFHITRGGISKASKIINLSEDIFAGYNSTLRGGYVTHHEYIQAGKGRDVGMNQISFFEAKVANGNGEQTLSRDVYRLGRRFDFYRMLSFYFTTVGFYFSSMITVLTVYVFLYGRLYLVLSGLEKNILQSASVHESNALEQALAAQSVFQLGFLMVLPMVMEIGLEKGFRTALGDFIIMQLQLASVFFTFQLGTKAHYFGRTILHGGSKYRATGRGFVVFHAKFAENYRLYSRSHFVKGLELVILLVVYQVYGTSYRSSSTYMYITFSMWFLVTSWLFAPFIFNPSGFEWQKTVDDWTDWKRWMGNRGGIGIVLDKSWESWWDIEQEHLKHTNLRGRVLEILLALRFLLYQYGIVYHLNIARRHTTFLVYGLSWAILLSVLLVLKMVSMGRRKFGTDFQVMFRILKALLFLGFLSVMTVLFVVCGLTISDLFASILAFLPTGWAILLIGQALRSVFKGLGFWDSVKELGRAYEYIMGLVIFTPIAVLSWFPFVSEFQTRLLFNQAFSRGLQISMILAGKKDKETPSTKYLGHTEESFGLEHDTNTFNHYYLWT

Assays:
Experiment in all cases: proximity labelling
[1] = biological target: T1, PDLP5-TurboID-3xFlag (Arabidopsis thaliana) (UniProt Q8GUJ2)
T1 sequence: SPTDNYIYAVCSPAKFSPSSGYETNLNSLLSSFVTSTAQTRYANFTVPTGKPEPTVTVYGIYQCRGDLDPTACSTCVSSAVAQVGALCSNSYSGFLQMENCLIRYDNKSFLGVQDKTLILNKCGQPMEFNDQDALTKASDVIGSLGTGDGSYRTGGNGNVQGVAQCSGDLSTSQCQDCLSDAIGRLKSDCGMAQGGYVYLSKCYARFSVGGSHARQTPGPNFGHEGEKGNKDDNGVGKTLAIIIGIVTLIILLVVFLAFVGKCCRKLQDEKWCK

[2] = biological target: T2, PDLP6-TbID-3xFlag (Arabidopsis thaliana) (UniProt Q9ZU94)
T2 sequence: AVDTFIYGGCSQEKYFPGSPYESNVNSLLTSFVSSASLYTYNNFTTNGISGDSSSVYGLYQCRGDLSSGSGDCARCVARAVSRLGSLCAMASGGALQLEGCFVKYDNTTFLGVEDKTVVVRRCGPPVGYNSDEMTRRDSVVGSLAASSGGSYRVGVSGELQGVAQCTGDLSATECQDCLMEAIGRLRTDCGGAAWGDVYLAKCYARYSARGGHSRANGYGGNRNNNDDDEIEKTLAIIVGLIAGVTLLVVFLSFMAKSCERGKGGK

[3] = biological target: T3, TbID-3xFlag-MCTP3 (Arabidopsis thaliana) (UniProt Q9M2R0)
T3 sequence: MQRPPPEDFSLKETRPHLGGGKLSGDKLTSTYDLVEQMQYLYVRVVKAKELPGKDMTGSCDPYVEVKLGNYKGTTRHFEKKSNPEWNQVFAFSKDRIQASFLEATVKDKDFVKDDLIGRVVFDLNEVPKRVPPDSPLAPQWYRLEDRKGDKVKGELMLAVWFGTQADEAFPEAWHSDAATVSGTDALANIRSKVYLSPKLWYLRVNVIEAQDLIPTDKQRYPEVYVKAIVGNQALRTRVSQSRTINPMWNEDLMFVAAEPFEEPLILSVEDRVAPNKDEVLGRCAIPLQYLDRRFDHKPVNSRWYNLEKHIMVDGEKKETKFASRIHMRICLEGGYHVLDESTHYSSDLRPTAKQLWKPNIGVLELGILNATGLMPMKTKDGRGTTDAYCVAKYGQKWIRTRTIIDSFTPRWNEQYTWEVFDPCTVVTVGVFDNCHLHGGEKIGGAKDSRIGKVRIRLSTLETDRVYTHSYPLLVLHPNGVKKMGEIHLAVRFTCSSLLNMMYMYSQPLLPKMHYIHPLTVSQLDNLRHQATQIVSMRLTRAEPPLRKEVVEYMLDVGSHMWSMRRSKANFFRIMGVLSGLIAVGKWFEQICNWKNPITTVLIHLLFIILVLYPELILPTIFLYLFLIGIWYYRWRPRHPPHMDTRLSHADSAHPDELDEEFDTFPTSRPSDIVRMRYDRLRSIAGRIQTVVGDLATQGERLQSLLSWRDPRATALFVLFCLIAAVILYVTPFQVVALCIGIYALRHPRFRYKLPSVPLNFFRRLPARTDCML

binding [1]: binds
binding [2]: binds
Molecule: REM1.2 (from UniProt Q9M2D8)

binding [1]: binds
binding [2]: binds
Molecule: REM1.3 (from UniProt O80837)

binding [2]: binds
Molecule: sucrose synthase 6 (SUS6), endogenous (from UniProt Q9FX32 1-942) (enzyme)

binding [2]: no binding
Molecule: callose synthase 7 (CalS7), endogenous (from UniProt Q9SHJ3 1-1958) (enzyme)

binding [3]: binds
B1: RTNLB6 (protein, UniProt Q6DBN4 1-253)
chain: MAEELEKSMHKEESLMEKIADKIHDHDSSSSSDSEHEKPESPSALKAKIYRLFGREKPVHKVLGGGLPADVFLWRDKKLSASVLGVATAIWVLFELVEYHFLSLVCHILIFALAALFLLSNAHAFMNKTPPKIPEIHIKEEHFLMIVSALRNELNQAFVILRSIALGRDLKKFLMVVFGLWIISVVGNWFNFLTLVYICFVVLHTVPMLYEKHEDKVDPVAEKTLKELKKHYMVFDEKVLSKLPVASLKAKLG

binding [3]: binds
B2: HVA22c (protein, UniProt Q9S784 1-184)
chain: MPSNSGDDNVLQVLIKNFDVLALPLVTLVYPLYASVKAIETRSLPEDEQWLTYWVLYALISLFELTFSKPLEWFPIWPYMKLFGICWLVLPQFNGAEHIYKHFIRPFYRDPQRATTKIWYVPHKKFNFFPKRDDDDILTAAEKYMEQHGTEAFERMIVKKDSYERGRSSRGINNHMIFDDDYRY

binding [3]: binds
B3: HVA22a (protein, UniProt Q9S7V4 1-177)
chain: MGSGAGNFLKVLLRNFDVLAGPVVSLVYPLYASVQAIETQSHADDKQWLTYWVLYSLLTLIELTFAKLIEWLPIWSYMKLILTCWLVIPYFSGAAYVYEHFVRPVFVNPRSINIWYVPKKMDIFRKPDDVLTAAEKYIAENGPDAFEKILSRADKSKRYNKHEYESYETMYGEGYQY

binding [1]: binds
binding [2]: binds
B4: CLV1 (receptor, UniProt Q9SYQ8 25-980)
chain: YTDMEVLLNLKSSMIGPKGHGLHDWIHSSSPDAHCSFSGVSCDDDARVISLNVSFTPLFGTISPEIGMLTHLVNLTLAANNFTGELPLEMKSLTSLKVLNISNNGNLTGTFPGEILKAMVDLEVLDTYNNNFNGKLPPEMSELKKLKYLSFGGNFFSGEIPESYGDIQSLEYLGLNGAGLSGKSPAFLSRLKNLREMYIGYYNSYTGGVPPEFGGLTKLEILDMASCTLTGEIPTSLSNLKHLHTLFLHINNLTGHIPPELSGLVSLKSLDLSINQLTGEIPQSFINLGNITLINLFRNNLYGQIPEAIGELPKLEVFEVWENNFTLQLPANLGRNGNLIKLDVSDNHLTGLIPKDLCRGEKLEMLILSNNFFFGPIPEELGKCKSLTKIRIVKNLLNGTVPAGLFNLPLVTIIELTDNFFSGELPVTMSGDVLDQIYLSNNWFSGEIPPAIGNFPNLQTLFLDRNRFRGNIPREIFELKHLSRINTSANNITGGIPDSISRCSTLISVDLSRNRINGEIPKGINNVKNLGTLNISGNQLTGSIPTGIGNMTSLTTLDLSFNDLSGRVPLGGQFLVFNETSFAGNTYLCLPHRVSCPTRPGQTSDHNHTALFSPSRIVITVIAAITGLILISVAIRQMNKKKNQKSLAWKLTAFQKLDFKSEDVLECLKEENIIGKGGAGIVYRGSMPNNVDVAIKRLVGRGTGRSDHGFTAEIQTLGRIRHRHIVRLLGYVANKDTNLLLYEYMPNGSLGELLHGSKGGHLQWETRHRVAVEAAKGLCYLHHDCSPLILHRDVKSNNILLDSDFEAHVADFGLAKFLVDGAASECMSSIAGSYGYIAPEYAYTLKVDEKSDVYSFGVVLLELIAGKKPVGEFGEGVDIVRWVRNTEEEITQPSDAAIVVAIVDPRLTGYPLTSVIHVFKIAMMCVEEEAAARPTMREVVHMLTNPPKSVANLIAF

binding [3]: binds
B5: RTNLB8 (protein, UniProt Q9SS37 1-247)
chain: MPDKNIVEDVIGDLVDNFTETVQKNKHGSSFFEQEDSVSSRFNRLFDRQKPIHHVLGGGKSADVLLWRNKKISASVLMGATAIWVLFEWINFHFLSLVCYALLLGMIAQFVWSNASGFLNRSQSRVPRLVLPKDFFAEVGVAVGKEVNRGLLFLQDLACKGNLKQFLMAVIGLWVAAMVGSCCNFLTVLYIGFVGAHTMPVLYERYEDEVDGFMDSMIMKFHSHYKKLDTGFLSRIPSGKFGLKKRE
